Measurements from paper PMC9315884, “New Membrane Active Antibacterial and Antiviral Amphiphiles Derived from Heterocyclic Backbone of Pyridinium-4-Aldoxime” (Pharmaceuticals, 2022).
Where “and” joins values, the source holds several entries; their conditions need not be identical. Identical values can stand only once.

Key:
RPE1 cells = assay: Cytotoxicity (MTS assay); conditions: Homo sapiens, RPE-1, 48 h, read-out: IC50 (50% inhibition of cell growth)
Method: (§1) Keratinocytes are the primary cell type found in the outermost layer of the skin. Therefore, HaCaT cells were used as a model for human skin, and RPE1 are retinal pigment epithelial cells, thus a model for epithelial cell type.
(§2) Cells were grown in DMEM media in a humidified environment with 5% CO2 and 37 °C. To determine cytotoxicity, a twofold serial dilution of a tested compound starting at 5 mg/mL was prepared in a 96-well plate. Five thousand cells were pipetted into each well, and the cells were grown for an additional 48 h. Then, the reagent MTS (20 μL) was added to the cells according to the manufacturer’s instructions (CellTiter 96® Aqueous One Solution Cell Proliferation Assay, Promega). After 3 h of incubation, the absorbance was measured at 490 nm. IC50 values were determined by plotting compound concentration against absorbance using GraFit6 software.

HaCaT cells = assay: Cytotoxicity (MTS assay); conditions: Homo sapiens, 48 h, read-out: IC50 (50% inhibition of cell growth)
Method: as §1, §2

[1] = test system: Pseudomonas aeruginosa ATCC27853; assay: Broth microdilution assay (MIC); format: cell-based
Method: (§3) The antibacterial activity of all compounds was evaluated by determining the minimum inhibitory concentration (MIC), which is defined as the lowest concentration of the compound at which no visible bacterial growth is detected. The compounds were tested against representatives of Gram-positive and Gram-negative strains, including the ESKAPE bacterium Staphylococcus aureus ATCC25923 and the clinical isolate of methicillin-resistant S. aureus (MRSA), which are known for their pathogenicity.
(§4) All microbial strains were maintained at ™80 °C for long-term storage and subcultured on Mueller-Hinton (MH) agar (Biolife, Italy) prior to broth microdilution experiments. The MH plates were stored at +4 °C for no longer than one month.
(§5) Antibacterial activity was evaluated using the Broth Microdilution Assay according to the Clinical and Laboratory Standard Institute’s Methods for Dilution Antimicrobial Susceptibility Test for Bacteria That Grow Aerobically; Approved Standard-Tenth Edition.
(§6) The stock solution of QAS (10 mg/mL) was prepared in 4% DMSO. Then, 100 µL of the tested QAS was added to the first well of the microtiter plate. Twofold serial dilutions in Muller-Hinton broth were performed over the entire plate at a concentration range of 5 mg/mL to 5 µg/mL. […] The minimum inhibitory concentration (MIC) was determined as the lowest concentration at which no visually detectable bacterial growth occurred in the wells.

[2] = test system: Escherichia coli ATCC25922; assay: Broth microdilution assay (MIC); format: cell-based
Method: as §3, §4, §5, §6

[3] = test system: Listeria monocytogenes ATCC7644; assay: Broth microdilution assay (MIC); format: cell-based
Method: as §3, §4, §5, §6

[4] = test system: Staphylococcus aureus ATCC25923; assay: Broth microdilution assay (MIC); format: cell-based
Method: as §3, §4, §5, §6

[5] = test system: Bacillus cereus ATCC14579; assay: Broth microdilution assay (MIC); format: cell-based
Method: as §3, §4, §5, §6

[6] = test system: Enterococcus faecalis ATCC29212; assay: Broth microdilution assay (MIC); format: cell-based
Method: as §3, §4, §5, §6

[7] = test system: MRSA in the biofilm state; conditions: cited from earlier work
[8] = test system: methicillin-resistant Staphylococcus aureus clinical strain MRSA; assay: Broth microdilution assay (MIC); format: cell-based
Method: as §3
(§7) The collection included five Gram-positive strains, including Staphylococcus aureus (ATCC 25923 and a methicillin-resistant Staphylococcus aureus clinical strain MRSA), Bacillus cereus ATCC 14579, Enterococcus faecalis ATCC 29212, and Listeria monocytogenes ATCC 7644; and three Gram-negative strains: Escherichia coli ATCC 25922, Pseudomonas aeruginosa ATCC 27853 and the food isolate Salmonella enterica. […]
as §5
(§8) The stock solution of QAS (10 mg/mL) was prepared in 4% DMSO. […] The minimum inhibitory concentration (MIC) was determined as the lowest concentration at which no visually detectable bacterial growth occurred in the wells.

[9] = test system: Salmonella enterica food isolate; assay: Broth microdilution assay (MIC); format: cell-based; conditions: S. enterica food isolate, standards
Method: as §3, §7, §5, §8

Which IC50 (RPE1 cells) does the source give for `CCCCCCCCCCCCCCCC[n+]1ccccc1` [CPC, Cetylpyridinium chloride, reference compound] here?
The IC50 was under 500 µM.

And the IC50 (HaCaT cells)?
Its IC50 is under 500 µM.

What about the MIC [1] of the same molecule?
The MIC was 850 µg/mL and 250 µM.

And the MIC [2]?
Its MIC is 5.3 µg/mL and 20 µM.

And the MIC [3]?
The MIC was 2.7 µg/mL and 10 µM.

What about the MIC [4] of the same molecule?
Its MIC is 1.4 µg/mL and 4.1 µM.

And the MIC [5]?
Its MIC is 5.3 µg/mL and 20 µM.

And the MIC [6]?
Its MIC is 2.7 µg/mL and 10 µM.

And the “fold lower efficacy against resistant bacteria” value [7]?
Its value is 4 fold.

And the MIC [8]?
The MIC was 2.7 µg/mL and 10 µM.

And the MIC [9]?
The MIC was 21.2 µg/mL and 60 µM.
